# Data as given in patent US10925852B2, “Talc-bound compositions and uses thereof” (THE TRUSTEES OF COLUMBIA UNIVERSITY IN THE CITY OF NEW YORK, priority 2015, dated 2021).
# Several values for one entry are separate records, joined by “and”; a condition that tells them apart may be missing. Equal values may be shown once.
# Experiments:
# [1] = Avidin and Avidin-Rhodamine binding to talc after PBS and 0.2% EDTA washes, fluorescent microscope (Example 2); settings: 100 mg talc; 3× PBS, or 3× PBS then 3× 0.2% EDTA
# [2] = Binding Avidin to 100 mg sterile talc: saturation and release on washing, Pierce 660 nm total protein assay (Example 3); settings: for AVIDIN in supernatant after incubation / Avidin binded to talc / Amount of Avidin removed by wash: 100 mg talc
# [3] = Avidin saturation of 100 mg talc at higher Avidin concentrations, Pierce total protein assay (Example 4); format: binding
# [4] = Hot and cold Avidin mix binding to talc with controls, absorbance 450 nm (Example 12)
substance,measurement,setting,value
Avidin-Rhodamine: Rhodamine Conjugated Avidin from Rockland,binding to talc after washes (fluorescent microscope),[1],remained bound to talc despite multiple washes
"Avidin: Avidin from egg white (Sigma, Cat. #: A 9275-100 mg); unlabeled, cold Avidin",Saturation of AVIDIN to the combine surface of 100 mg talc,[2]; 198.4 μg Avidin added to reaction,2.48 μg/cm^2
same,Saturation of AVIDIN to the combine surface of 100 mg talc,[2]; 1650.3 μg Avidin added to reaction,6.25 μg/cm^2
same,AVIDIN in supernatant after incubation,[2]; 198.4 μg AVIDIN in reaction,13.7 μg/0.5 ml
same,Avidin binded to talc,[2]; 198.4 μg AVIDIN in reaction,184.7 µg
same,AVIDIN in supernatant after incubation,"[2]; 198.4 μg AVIDIN in reaction (396.8 μg/ml, 0.5 ml)",27.4 µg/mL
same,AVIDIN in supernatant after incubation,[2]; 1650.3 μg AVIDIN in reaction,1185 μg/0.5 ml
same,Avidin binded to talc,[2]; 1650.3 μg AVIDIN in reaction,465.3 µg
same,AVIDIN in supernatant after incubation,"[2]; 1650.3 μg AVIDIN in reaction (3300.6 μg/ml, 0.5 ml)",2370 µg/mL
same,Amount of Avidin removed by wash,"[2]; 1st wash with EDTA, 198.4 μg Avidin",15.8 µg/mL
same,Amount of Avidin removed by wash,"[2]; 1st wash with EDTA, 1650.3 μg Avidin",13.2 µg/mL
same,Amount of Avidin removed by wash,"[2]; 1st wash with PBS, 198.4 μg Avidin",31.4 µg/mL
same,Amount of Avidin removed by wash,"[2]; 1st wash with PBS, 1650.3 μg Avidin",307.4 µg/mL
same,Amount of Avidin removed by wash,"[2]; 2nd wash with EDTA, 198.4 μg Avidin",19.8 µg/mL
same,Amount of Avidin removed by wash,"[2]; 2nd wash with EDTA, 1650.3 μg Avidin",12.3 µg/mL
same,Amount of Avidin removed by wash,"[2]; 2nd wash with PBS, 198.4 μg Avidin",27.6 µg/mL
same,Amount of Avidin removed by wash,"[2]; 2nd wash with PBS, 1650.3 μg Avidin",67.3 µg/mL
same,Amount of Avidin removed by wash,"[2]; 3rd wash with EDTA, 198.4 μg Avidin",13 µg/mL
same,Amount of Avidin removed by wash,"[2]; 3rd wash with EDTA, 1650.3 μg Avidin",13.2 µg/mL
same,Amount of Avidin removed by wash,"[2]; 3rd wash with PBS, 198.4 μg Avidin",32.7 µg/mL
same,Amount of Avidin removed by wash,"[2]; 3rd wash with PBS, 1650.3 μg Avidin",40.3 µg/mL
same,Avidin binded with talc,[3]; Avidin 330 μg/ml added,110.4 µg/mL
same,Avidin in supernatant,[3]; Avidin 330 μg/ml added,"219.6 μg, ml"
same,Avidin μg/cm2 talc surface,[3]; Avidin 330 μg/ml added,1.5 μg/cm2
same,Avidin binded with talc,[3]; Avidin 3300 μg/ml added,2452.7 µg/mL
same,Avidin in supernatant,[3]; Avidin 3300 μg/ml added,"847.3 μg, ml"
same,Avidin μg/cm2 talc surface,[3]; Avidin 3300 μg/ml added,33.0 μg/cm2 and 33 μg/cm2
same,Avidin binded with talc,[3]; Avidin 6600 μg/ml added,4631.5 µg/mL
same,Avidin in supernatant,[3]; Avidin 6600 μg/ml added,"1968.5 μg, ml"
same,Avidin μg/cm2 talc surface,[3]; Avidin 6600 μg/ml added,62.3 μg/cm2
same,Avidin binded with talc,[3]; Avidin 19800 μg/ml added,12166.7 µg/mL
same,Avidin in supernatant,[3]; Avidin 19800 μg/ml added,"7633.3 μg, ml"
same,Avidin μg/cm2 talc surface,[3]; Avidin 19800 μg/ml added,163.5 μg/cm2
same,Avidin binded with talc,[3]; Avidin […] added,7952.7 µg/mL
same,Avidin in supernatant,[3]; Avidin […] added,"5247.3 μg, ml"
same,Avidin μg/cm2 talc surface,[3]; Avidin […] added,106.9 μg/cm2
same,saturation of talc particles,[3]; increasing concentrations of Avidin,not fully saturated
same,"Efficiency of binding, absorbance 450 nm","[4]; 1 mg talc, Cold Avidin only 100 ug/mL",0.31 OD and 0.4373 OD and 0.2746 OD and 0.2226 OD
same,"Efficiency of binding, absorbance 450 nm","[4]; 1 mg talc, Cold Avidin only 200 ug/mL",0.27 OD and 0.2701 OD and 0.2684 OD and 0.2574 OD
same,"Efficiency of binding, absorbance 450 nm","[4]; 1 mg talc, Cold Avidin only 400 ug/mL",0.3 OD and 0.2408 OD and 0.3108 OD and 0.354 OD and 0.30 OD
same,"Efficiency of binding, absorbance 450 nm","[4]; 1 mg talc, Cold Avidin only 4 mg/mL",0.33 OD and 0.3584 OD and 0.3743 OD and 0.2618 OD
same,"Efficiency of binding, absorbance 450 nm","[4]; 5 mg talc, Cold Avidin only 100 ug/mL",1.38 OD and 1.4221 OD and 1.4705 OD and 1.2587 OD
same,"Efficiency of binding, absorbance 450 nm","[4]; 5 mg talc, Cold Avidin only 200 ug/mL",1.4 OD and 1.3784 OD and 1.4737 OD and 1.3586 OD and 1.40 OD
same,"Efficiency of binding, absorbance 450 nm","[4]; 5 mg talc, Cold Avidin only 400 ug/mL",1.01 OD and 0.9944 OD and 1.357 OD and 0.6924 OD
same,"Efficiency of binding, absorbance 450 nm","[4]; 5 mg talc, Cold Avidin only 4 mg/mL",1.23 OD and 0.9106 OD and 1.3512 OD and 1.4221 OD
same,avidin bound by talc,"[4]; HRP-labeled avidin, saturation of binding",> 2 nanograms of avidin per mg of talc
same,binding to talc after washes (fluorescent microscope),[1],remained bound to talc despite multiple washes
